# Source: patent US20240317890A1 (INSTITUT CURIE, published 2024)
# No constants are given. Whether binding was seen depends on the method and setting. Some entries that bind do so weakly or less than the wild type.
# B1: anti-HER2 humanized synthetic single domain antibody sdAb no 1 (VHH)
# VHH: EVQLQASGGGFVQPGGSLRLSCAASGATSNISNMGWFRQAPGKEREFVSAISRAESRPLYYADSVKGRFTISRDNSKNTVYLQMNSLRAEDTATYYCAYMPLVRHKAYWGQGTQVTVSS
# notes: Purified sdAb in BLI; also called sdAb 1; hsdAb1
# B2: anti-HER2 humanized synthetic single domain antibody sdAb no 2 (VHH)
# VHH: EVQLQASGGGFVQPGGSLRLSCAASGDSYNESSMGWFRQAPGKEREFVSAISARGNHPLYYADSVKGRFTISRDNSKNTVYLQMNSLRAEDTATYYCASMPMPKWKKYWGQGTQVTVSS
# notes: Purified sdAb in BLI; also called sdAb 2; hsdAb 2
# B3: sdAb 3 (VHH)
# VHH: EVQLQASGGGFVQPGGSLRLSCAASGRYYEQSIMGWFRQAPGKEREFVSAISEYGGWQHYYADSVKGRFTISRDNSKNTVYLQMNSLRAEDTATYYCAIRHQNQSMMYWGQGTQVTVSS
# B4: anti-HER2 humanized synthetic single domain antibody sdAb no 4 (VHH)
# VHH: EVQLQASGGGFVQPGGSLRLSCAASGYTSRESGMGWFRQAPGKEREFVSAISRDQDGISYYADSVKGRFTISRDNSKNTVYLQMNSLRAEDTATYYCAMIPLTRNAKYWGQGTQVTVSS
# notes: Purified sdAb in BLI; Any tag is not described for this assay; also called sdAb 4
# B5: anti-HER2 humanized synthetic single domain antibody sdAb no 5 (VHH)
# VHH: EVQLQASGGGFVQPGGSLRLSCAASGYTFSEETMGWFRQAPGKEREFVSAISWNHTFFEYYADSVKGRFTISRDNSKNTVYLQMNSLRAEDTATYYCAVTPLPPNKAYWGQGTQVTVSS
# notes: Purified sdAb in BLI; also called sdAb 5; hsdAb 5
# B6: anti-HER2 humanized synthetic single domain antibody sdAb no 6 (VHH)
# VHH: EVQLQASGGGFVQPGGSLRLSCAASGRGYTGTTMGWFRQAPGKEREFVSAISWTSNQTSYYADSVKGRFTISRDNSKNTVYLQMNSLRAEDTATYYCAMMPLPRWKGYWGQGTQVTVSS
# notes: Purified sdAb in BLI; Any tag is not described for this assay; also called sdAb 6
# Target: Her2 rFc (Homo sapiens) (UniProt P04626)
# Assay: ELISA on HER2 fused with a rabbit Fc, control rabbit IgG beside it
row,Binder,binding
1,B1,binds
2,B2,binds
3,B3,binds
4,B4,binds
5,B5,binds
6,B6,binds
